{"source": "PubChem BioAssay AID652243 (Drosophila RNAi Screening Center, 2013)", "assay": "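Fly regulators of androgen-dependent reporter output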 (primary screen)", "cell system": "Drosophila S2R+ cells", "knock-down reagent": "long dsRNA against Drosophila genes", "time to read-out": "72 h (48 h, then 24 h hormone)", "challenge": "synthetic androgen R1881 at 10 nM for 24 h", "measurement": "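Per-well raw luminescence of the androgen-driven firefly reporter and of the Renilla control, two replicates each, without normalisation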", "direction": "firefly reporter light: higher = more light from androgen-responsive reporter; Renilla control light: higher = more constitutive control signal (cell number, transfection)", "rule for the call": "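Across duplicate plates, a knock-down whose log firefly/Renilla ratio shifted a set fold down or up from the GFP/LacZ control mean was a hit; the downward cut appears as both 1.5 and 3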", "meaning of the calls": "active = hit: reporter lowered or raised; inactive = no hit", "note": "The deposit covers about 24,000 reagents; shown is an unselected part of those with a known target gene and a result. Of all reagents, 246 (1%) were called active. 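Plates not normalised; calls are printed but the firefly/Renilla ratio behind them is not deposited; fold cut for lowering reported inconsistently.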 Raw values vary from plate to plate and are shown uncorrected. Names joined by + are all predicted targets of the reagent. No sequences are given here. Not given: the amount of reagent."}
{"gene": "CG12868", "amplicon": "DRSC06207", "firefly reporter light, replicate 1": 50353, "firefly reporter light, replicate 2": 64104, "Renilla control light, replicate 1": 6.82e5, "Renilla control light, replicate 2": 6.82e5, "Call": "inactive"}
{"gene": "CG12868", "amplicon": "DRSC26377", "firefly reporter light, replicate 1": 5.59e5, "firefly reporter light, replicate 2": 4.59e5, "Renilla control light, replicate 1": 6.11e5, "Renilla control light, replicate 2": 7.15e5, "Call": "inactive"}
{"gene": "CG4041", "amplicon": "DRSC18339", "firefly reporter light, replicate 1": 2.17e5, "firefly reporter light, replicate 2": 3.44e5, "Renilla control light, replicate 1": 3.04e6, "Renilla control light, replicate 2": 1.24e6, "Call": "inactive"}
{"gene": "CG4041", "amplicon": "DRSC26992", "firefly reporter light, replicate 1": 4.77e5, "firefly reporter light, replicate 2": 3.52e5, "Renilla control light, replicate 1": 9.65e5, "Renilla control light, replicate 2": 5.07e5, "Call": "inactive"}
{"gene": "CG4041", "amplicon": "DRSC37046", "Call": "inactive"}
{"gene": "CG9114", "amplicon": "DRSC20155", "firefly reporter light, replicate 1": 5.59e5, "firefly reporter light, replicate 2": 7.06e5, "Renilla control light, replicate 1": 4.58e6, "Renilla control light, replicate 2": 5.04e6, "Call": "inactive"}
{"gene": "Pstk + Tim9b", "amplicon": "DRSC19504", "firefly reporter light, replicate 1": 84075, "firefly reporter light, replicate 2": 61093, "Renilla control light, replicate 1": 6.37e5, "Renilla control light, replicate 2": 4.36e5, "Call": "inactive"}
{"gene": "Pstk + Tim9b", "amplicon": "DRSC20292", "firefly reporter light, replicate 1": 3.14e5, "firefly reporter light, replicate 2": 2.09e5, "Renilla control light, replicate 1": 8.38e5, "Renilla control light, replicate 2": 6.00e5, "Call": "inactive"}
{"gene": "Pstk + Tim9b", "amplicon": "DRSC28671", "firefly reporter light, replicate 1": 7.66e5, "firefly reporter light, replicate 2": 7.71e5, "Renilla control light, replicate 1": 1.69e6, "Renilla control light, replicate 2": 1.38e6, "Call": "inactive"}
{"gene": "upd1", "amplicon": "DRSC20358", "firefly reporter light, replicate 1": 5.20e5, "firefly reporter light, replicate 2": 3.54e5, "Renilla control light, replicate 1": 4.08e6, "Renilla control light, replicate 2": 3.24e6, "Call": "inactive"}
{"gene": "upd1", "amplicon": "DRSC28435", "firefly reporter light, replicate 1": 3.60e5, "firefly reporter light, replicate 2": 6.28e5, "Renilla control light, replicate 1": 6.21e5, "Renilla control light, replicate 2": 9.39e5, "Call": "inactive"}
{"gene": "thw", "amplicon": "DRSC12552", "firefly reporter light, replicate 1": 41152, "firefly reporter light, replicate 2": 80544, "Renilla control light, replicate 1": 1.28e6, "Renilla control light, replicate 2": 1.53e6, "Call": "inactive"}
{"gene": "Fer3HCH", "amplicon": "DRSC19892", "firefly reporter light, replicate 1": 4.57e5, "firefly reporter light, replicate 2": 3.58e5, "Renilla control light, replicate 1": 4.58e6, "Renilla control light, replicate 2": 3.59e6, "Call": "inactive"}
{"gene": "Fer3HCH", "amplicon": "DRSC26911", "firefly reporter light, replicate 1": 3.59e5, "firefly reporter light, replicate 2": 4.03e5, "Renilla control light, replicate 1": 5.69e5, "Renilla control light, replicate 2": 5.47e5, "Call": "inactive"}
{"gene": "mts", "amplicon": "DRSC03574", "firefly reporter light, replicate 1": 5.09e5, "firefly reporter light, replicate 2": 7.16e5, "Renilla control light, replicate 1": 2.67e6, "Renilla control light, replicate 2": 2.35e6, "Call": "active"}
{"gene": "mts", "amplicon": "DRSC36626", "Call": "inactive"}
{"gene": "Spt20", "amplicon": "DRSC22993", "firefly reporter light, replicate 1": 5.70e5, "firefly reporter light, replicate 2": 7.95e5, "Renilla control light, replicate 1": 8.29e5, "Renilla control light, replicate 2": 1.00e6, "Call": "inactive"}
{"gene": "Spt20", "amplicon": "DRSC25791", "firefly reporter light, replicate 1": 2.55e5, "firefly reporter light, replicate 2": 3.87e5, "Renilla control light, replicate 1": 6.88e5, "Renilla control light, replicate 2": 5.20e5, "Call": "inactive"}
{"gene": "His-Psi:CR31616 + His-Psi:CR31615", "amplicon": "DRSC03760", "firefly reporter light, replicate 1": 4.09e5, "firefly reporter light, replicate 2": 3.84e5, "Renilla control light, replicate 1": 1.15e5, "Renilla control light, replicate 2": 1.22e5, "Call": "inactive"}
{"gene": "CG13527", "amplicon": "DRSC04169", "firefly reporter light, replicate 1": 4.53e5, "firefly reporter light, replicate 2": 4.97e5, "Renilla control light, replicate 1": 1.73e6, "Renilla control light, replicate 2": 1.96e6, "Call": "inactive"}
{"gene": "CG14965", "amplicon": "DRSC08424", "firefly reporter light, replicate 1": 9.63e5, "firefly reporter light, replicate 2": 7.75e5, "Renilla control light, replicate 1": 1.03e6, "Renilla control light, replicate 2": 8.63e5, "Call": "inactive"}
{"gene": "Snap29", "amplicon": "DRSC04721", "firefly reporter light, replicate 1": 1.53e5, "firefly reporter light, replicate 2": 1.79e5, "Renilla control light, replicate 1": 1.63e6, "Renilla control light, replicate 2": 1.75e6, "Call": "inactive"}
{"gene": "Snap29", "amplicon": "DRSC24658", "firefly reporter light, replicate 1": 2.45e5, "firefly reporter light, replicate 2": 1.94e5, "Renilla control light, replicate 1": 1.25e6, "Renilla control light, replicate 2": 5.16e5, "Call": "inactive"}
{"gene": "CG13806", "amplicon": "DRSC08341", "firefly reporter light, replicate 1": 76480, "firefly reporter light, replicate 2": 1.14e5, "Renilla control light, replicate 1": 1.01e6, "Renilla control light, replicate 2": 1.26e6, "Call": "inactive"}
{"gene": "CG1924", "amplicon": "DRSC19823", "firefly reporter light, replicate 1": 4.90e5, "firefly reporter light, replicate 2": 5.16e5, "Renilla control light, replicate 1": 2.52e6, "Renilla control light, replicate 2": 2.67e6, "Call": "inactive"}
{"gene": "CG1924", "amplicon": "DRSC24870", "firefly reporter light, replicate 1": 6.98e5, "firefly reporter light, replicate 2": 8.17e5, "Renilla control light, replicate 1": 7.06e5, "Renilla control light, replicate 2": 6.75e5, "Call": "inactive"}
{"gene": "Phyhd1", "amplicon": "DRSC14911", "firefly reporter light, replicate 1": 2.04e5, "firefly reporter light, replicate 2": 1.93e5, "Renilla control light, replicate 1": 3.22e6, "Renilla control light, replicate 2": 2.87e6, "Call": "inactive"}
{"gene": "Phyhd1", "amplicon": "DRSC26408", "firefly reporter light, replicate 1": 2.50e5, "firefly reporter light, replicate 2": 2.87e5, "Renilla control light, replicate 1": 8.20e5, "Renilla control light, replicate 2": 8.30e5, "Call": "inactive"}
